PubChem BioAssay AID504764 | Drosophila RNAi Screening Center, 2011
In all, the deposit lists about 22,000 reagents; shown is an unselected part of those with a known target gene and a result. Over the whole deposit, 403 (1.9%) were called active. 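Unnormalised raw counts per well; ratio z-scores behind the hit calls and whether each hit raises or lowers signal are not deposited.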 Names joined by + are all predicted targets of the reagent. Reagent sequences are not shown. The record does not give: the amount of reagent.

Test: 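Genome-wide screen for regulators of Notch-driven gene expression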 (primary screen)
Cell system: Drosophila Kc167 cells
Reagents: long dsRNA against Drosophila genes
Time to read-out: about 5 days (4 days dsRNA, then 24 h after transfection)
Conditions: transfection of constitutively active membrane-tethered Notch lacking the extracellular domain, read 24 h later
Measurement: 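Firefly luciferase from an E(spl)m3 reporter with active Notch, plus control-promoter and uninduced reporter wells for normalisation; unnormalised counts, duplicate wells a and b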
Reading the numbers: induced reporter light, run 1, well a and induced reporter light, run 1, well b: higher = more light from the Notch target reporter with active Notch; control promoter light, run 1, well a and control promoter light, run 1, well b: higher = more light from the viral control promoter (cell number, transfection, viability); uninduced reporter light, run 1, well a: higher = more light from the Notch target reporter without active Notch
Call rule: 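Wells with low control signal or poorly matching duplicates excluded; duplicates averaged; per source plate, z beyond ±2 for induced/control log2 ratio or beyond ±1.8 for induced/uninduced marks a hit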
Calls: active = modifier hit (raised or lowered Notch signal); inactive = not a hit

Gene | amplicon | induced reporter light, run 1, well a | induced reporter light, run 1, well b | control promoter light, run 1, well a | control promoter light, run 1, well b | uninduced reporter light, run 1, well a | call
UK114 | DRSC01973 | 1.42e5 | 1.77e5 | 1.61e5 | 1.88e5 | 11600 | inactive
Vha14-2 (Vacuolar H[+] ATPase 14kD subunit 2) | DRSC12145 | 88965 | 81850 | 69665 | 61445 | 6515 | inactive
CG13800 (retired record) | DRSC08334 | 1.08e5 | 96660 | 1.76e5 | 1.32e5 | 6790 | inactive
Ssdp (Sequence-specific single-stranded DNA-binding protein) | DRSC16211 | 1.42e5 | 1.35e5 | 1.94e5 | 1.70e5 | 10060 | inactive
snama (something that sticks like glue) | DRSC04049 | 1.53e5 | 1.76e5 | 1.17e5 | 1.08e5 | 9355 | inactive
CG4324 | DRSC04462 | 1.44e5 | 1.50e5 | 1.56e5 | 1.33e5 | 10000 | inactive
Nrk (Neurospecific receptor kinase) | DRSC07480 | 80485 | 84850 | 1.10e5 | 1.07e5 | 8400 | inactive
Tpst (Tyrosylprotein sulfotransferase) | DRSC18989 | 1.12e5 | 1.23e5 | 1.14e5 | 1.12e5 | 10305 | inactive
Tpst (Tyrosylprotein sulfotransferase) | DRSC19696 | 56540 | 66580 | 71655 | 84515 | 5680 | inactive
Tpst (Tyrosylprotein sulfotransferase) | DRSC19723 | 1.17e5 | 90765 | 1.33e5 | 1.70e5 | 8670 | inactive
Tpst (Tyrosylprotein sulfotransferase) | DRSC19724 | 12805 | 13355 | 11660 | 12615 | 4020 | inactive
Tpst (Tyrosylprotein sulfotransferase) | DRSC22621 | – | – | – | – | – | inactive
JYalpha | DRSC17224 | 97660 | 1.12e5 | 1.58e5 | 2.15e5 | 7732 | inactive
Alp8 (Alkaline phosphatase 8) | DRSC04353 | 61175 | 54330 | 74910 | 80045 | 2805 | inactive
Hsc70-1 (Heat shock protein 70 cognate 1) | DRSC11185 | 1.02e5 | 98565 | 1.48e5 | 1.21e5 | 11160 | inactive
CG8093 | DRSC07078 | 1.04e5 | 80100 | 1.22e5 | 1.24e5 | 8665 | inactive
Nrd1 (Nardilysin) | DRSC19830 | 1.35e5 | 1.24e5 | 1.94e5 | 1.87e5 | 10020 | inactive
Mnr (Membrane-bound Notch regulator) | DRSC20549 | 83630 | 76120 | 84790 | 1.10e5 | 9905 | inactive
Mnr (Membrane-bound Notch regulator) | DRSC20550 | 72320 | 1.01e5 | 74165 | 1.17e5 | 9020 | inactive
CG4998 | DRSC10466 | 2.35e5 | 2.30e5 | 2.09e5 | 2.20e5 | 10630 | inactive
CG4998 | DRSC22911 | – | – | – | – | – | inactive
Mtl (Mig-2-like) | DRSC16751 | 1.82e5 | 1.09e5 | 2.34e5 | 2.00e5 | 13325 | inactive
Atg4a (Autophagy-related 4a) | DRSC00656 | 96675 | 1.03e5 | 1.09e5 | 1.14e5 | 8590 | inactive
CG5639 | DRSC15851 | 1.23e5 | 1.29e5 | 1.88e5 | 1.68e5 | 12055 | inactive
CG13177 | DRSC06303 | 83165 | 1.06e5 | 1.34e5 | 1.28e5 | 9355 | inactive
Adh + Adhr | DRSC01862 | 3.14e5 | 2.82e5 | 1.99e5 | 1.97e5 | 14940 | active
Adh + Adhr | DRSC01863 | 1.53e5 | 1.60e5 | 1.42e5 | 1.55e5 | 13710 | inactive
NfI (Nuclear factor I) | DRSC17158 | 1.80e5 | 2.08e5 | 2.87e5 | 2.74e5 | 12715 | inactive
Mis12 | DRSC10299 | 3.04e5 | 1.92e5 | 2.21e5 | 2.26e5 | 11405 | inactive
CG3257 | DRSC04351 | 1.67e5 | 1.35e5 | 1.23e5 | 1.82e5 | 12310 | inactive
CG16978 | DRSC02553 | 1.33e5 | 1.56e5 | 1.42e5 | 1.55e5 | 12680 | inactive
Mst98Ca (Male-specific RNA 98Ca) | DRSC16749 | 1.80e5 | 1.94e5 | 2.26e5 | 2.26e5 | 12010 | inactive
CG15186 | DRSC12566 | 82400 | 88450 | 70865 | 68345 | 5925 | inactive
qkr58E-1 (quaking related 58E-1) | DRSC04709 | 1.59e5 | 2.19e5 | 1.51e5 | 1.48e5 | 15205 | inactive
Mhc (Myosin heavy chain) | DRSC03367 | 1.30e5 | 1.31e5 | 1.51e5 | 1.73e5 | 11432 | inactive
CG17230 | DRSC15203 | 99725 | 1.15e5 | 58930 | 57075 | 6975 | inactive
CG1213 | DRSC12191 | 78910 | 96205 | 80550 | 60400 | 6320 | inactive
Cyp6d4 (Cytochrome P450 6d4) | DRSC16633 | 1.81e5 | 1.96e5 | 2.06e5 | 2.13e5 | 11915 | inactive
CG5274 | DRSC11774 | 1.19e5 | 1.43e5 | 72335 | 76590 | 12595 | inactive
Vti1a (Vesicle transport through interaction with t-SNAREs 1a) | DRSC08563 | 1.10e5 | 1.00e5 | 1.72e5 | 1.74e5 | 8715 | inactive
MP1 (Melanization Protease 1) | DRSC12124 | 1.40e5 | 1.32e5 | 73515 | 79220 | 8678 | inactive
CG15577 | DRSC18065 | 1.43e5 | 1.96e5 | 3.79e5 | 3.57e5 | 11735 | inactive
PTP-ER (Protein tyrosine phosphatase-ERK/Enhancer of Ras1) | DRSC04636 | 1.59e5 | 1.72e5 | 1.91e5 | 2.27e5 | 15205 | inactive
CG7702 | DRSC16293 | 84155 | 1.66e5 | 2.25e5 | 2.89e5 | 13715 | active
Drsl5 (Drosomycin-like 5) | DRSC08159 | 1.03e5 | 1.22e5 | 1.44e5 | 1.44e5 | 8775 | inactive
RpL13A (Ribosomal protein L13A) | DRSC12265 | 41890 | 61740 | 47360 | 48445 | 3310 | inactive
CG31327 | DRSC13019 | 1.11e5 | 1.11e5 | 1.37e5 | 1.07e5 | 8775 | inactive
b (black) | DRSC03487 | 1.82e5 | 1.94e5 | 1.85e5 | 1.86e5 | 15765 | inactive
Chd3 | DRSC11114 | 1.13e5 | 94280 | 1.22e5 | 1.13e5 | 8685 | inactive
CG8642 | DRSC07228 | 1.50e5 | 1.72e5 | 2.07e5 | 2.07e5 | 14120 | inactive
